Data: the supplement of paper PMC10849652
This is one part of the list.

By UniProt entry, the sequences of proteins in these tests, tags left out. Where a name states a change or a piece, a line headed by the entry shows the natural chain unless it says otherwise.
UniProt O75845: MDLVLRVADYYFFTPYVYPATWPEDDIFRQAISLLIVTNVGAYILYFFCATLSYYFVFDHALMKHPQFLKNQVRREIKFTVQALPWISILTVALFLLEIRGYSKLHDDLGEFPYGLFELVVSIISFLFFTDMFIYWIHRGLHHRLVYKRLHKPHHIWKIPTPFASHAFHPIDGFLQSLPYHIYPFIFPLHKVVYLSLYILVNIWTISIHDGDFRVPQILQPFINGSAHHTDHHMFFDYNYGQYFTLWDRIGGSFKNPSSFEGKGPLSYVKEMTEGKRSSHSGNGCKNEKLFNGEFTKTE
UniProt Q7L099: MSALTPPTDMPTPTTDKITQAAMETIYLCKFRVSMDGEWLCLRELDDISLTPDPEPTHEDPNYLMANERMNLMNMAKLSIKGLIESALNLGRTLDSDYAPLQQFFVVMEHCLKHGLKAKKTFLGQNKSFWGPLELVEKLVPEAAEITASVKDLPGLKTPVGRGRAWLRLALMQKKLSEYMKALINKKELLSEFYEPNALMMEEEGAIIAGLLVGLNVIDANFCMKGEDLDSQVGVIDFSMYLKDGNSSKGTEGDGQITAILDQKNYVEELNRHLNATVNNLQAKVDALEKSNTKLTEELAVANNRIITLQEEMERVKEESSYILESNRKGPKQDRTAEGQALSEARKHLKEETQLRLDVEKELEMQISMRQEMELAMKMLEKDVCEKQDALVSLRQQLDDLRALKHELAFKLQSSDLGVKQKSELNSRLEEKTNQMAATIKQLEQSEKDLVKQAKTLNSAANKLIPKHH
UniProt Q86SQ7: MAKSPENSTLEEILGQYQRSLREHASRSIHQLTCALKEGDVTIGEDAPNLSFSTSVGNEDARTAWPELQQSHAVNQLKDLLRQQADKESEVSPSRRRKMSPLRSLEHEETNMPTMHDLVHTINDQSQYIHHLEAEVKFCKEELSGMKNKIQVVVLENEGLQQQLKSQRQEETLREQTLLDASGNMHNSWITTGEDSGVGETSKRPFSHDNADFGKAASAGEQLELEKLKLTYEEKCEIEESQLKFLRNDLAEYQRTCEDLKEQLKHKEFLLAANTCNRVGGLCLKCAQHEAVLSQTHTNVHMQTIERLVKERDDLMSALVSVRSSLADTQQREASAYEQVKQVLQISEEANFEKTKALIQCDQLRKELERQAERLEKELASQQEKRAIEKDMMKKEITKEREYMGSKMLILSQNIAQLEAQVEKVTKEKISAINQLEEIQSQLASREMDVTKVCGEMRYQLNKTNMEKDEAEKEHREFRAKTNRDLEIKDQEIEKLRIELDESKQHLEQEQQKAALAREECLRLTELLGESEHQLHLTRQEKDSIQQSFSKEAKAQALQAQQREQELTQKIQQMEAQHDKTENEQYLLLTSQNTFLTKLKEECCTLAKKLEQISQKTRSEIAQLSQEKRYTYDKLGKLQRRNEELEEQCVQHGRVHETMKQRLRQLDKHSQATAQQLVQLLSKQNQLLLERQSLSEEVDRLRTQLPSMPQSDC
UniProt Q99643: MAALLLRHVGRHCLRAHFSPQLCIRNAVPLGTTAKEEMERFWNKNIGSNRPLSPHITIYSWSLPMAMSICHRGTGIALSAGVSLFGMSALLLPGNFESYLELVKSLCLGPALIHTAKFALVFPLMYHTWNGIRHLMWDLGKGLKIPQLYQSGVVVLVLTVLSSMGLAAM
UniProt P23297: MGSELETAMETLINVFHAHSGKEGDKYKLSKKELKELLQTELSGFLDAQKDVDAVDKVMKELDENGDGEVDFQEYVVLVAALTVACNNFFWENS
UniProt O14521: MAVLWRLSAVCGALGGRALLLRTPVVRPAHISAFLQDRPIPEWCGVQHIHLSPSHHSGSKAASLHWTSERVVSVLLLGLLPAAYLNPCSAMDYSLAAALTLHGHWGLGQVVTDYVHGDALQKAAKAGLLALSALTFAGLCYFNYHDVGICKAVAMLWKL
UniProt O95104: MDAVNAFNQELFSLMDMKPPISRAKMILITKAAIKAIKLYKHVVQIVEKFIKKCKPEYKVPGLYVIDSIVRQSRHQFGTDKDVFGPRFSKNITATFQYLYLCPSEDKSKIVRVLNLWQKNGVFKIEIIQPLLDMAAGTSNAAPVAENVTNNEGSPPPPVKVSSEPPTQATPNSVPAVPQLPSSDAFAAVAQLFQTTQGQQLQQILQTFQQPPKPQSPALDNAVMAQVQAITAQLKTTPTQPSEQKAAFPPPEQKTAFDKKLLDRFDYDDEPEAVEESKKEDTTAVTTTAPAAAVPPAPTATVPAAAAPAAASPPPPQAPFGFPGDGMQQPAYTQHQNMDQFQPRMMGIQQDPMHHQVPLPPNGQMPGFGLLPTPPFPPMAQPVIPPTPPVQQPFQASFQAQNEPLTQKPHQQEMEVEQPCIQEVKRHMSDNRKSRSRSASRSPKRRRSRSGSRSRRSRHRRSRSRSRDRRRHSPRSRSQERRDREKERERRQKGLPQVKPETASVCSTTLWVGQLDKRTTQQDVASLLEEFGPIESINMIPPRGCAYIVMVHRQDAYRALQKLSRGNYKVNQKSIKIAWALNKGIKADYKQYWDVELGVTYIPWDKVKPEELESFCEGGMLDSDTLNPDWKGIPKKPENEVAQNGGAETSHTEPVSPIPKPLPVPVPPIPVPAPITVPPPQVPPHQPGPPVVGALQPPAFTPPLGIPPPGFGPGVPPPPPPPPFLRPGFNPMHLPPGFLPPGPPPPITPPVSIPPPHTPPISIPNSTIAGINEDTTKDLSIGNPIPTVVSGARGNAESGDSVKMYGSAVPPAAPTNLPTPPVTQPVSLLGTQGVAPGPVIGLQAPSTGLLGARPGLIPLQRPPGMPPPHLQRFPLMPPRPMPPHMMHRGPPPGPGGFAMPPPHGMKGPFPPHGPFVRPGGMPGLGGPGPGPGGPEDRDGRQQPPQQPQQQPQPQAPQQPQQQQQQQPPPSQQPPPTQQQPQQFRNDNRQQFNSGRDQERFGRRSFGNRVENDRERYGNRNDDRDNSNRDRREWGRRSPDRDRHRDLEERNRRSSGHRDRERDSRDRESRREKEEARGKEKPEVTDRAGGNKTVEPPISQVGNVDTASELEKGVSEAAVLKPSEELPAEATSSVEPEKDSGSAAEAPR
UniProt Q9BWG6: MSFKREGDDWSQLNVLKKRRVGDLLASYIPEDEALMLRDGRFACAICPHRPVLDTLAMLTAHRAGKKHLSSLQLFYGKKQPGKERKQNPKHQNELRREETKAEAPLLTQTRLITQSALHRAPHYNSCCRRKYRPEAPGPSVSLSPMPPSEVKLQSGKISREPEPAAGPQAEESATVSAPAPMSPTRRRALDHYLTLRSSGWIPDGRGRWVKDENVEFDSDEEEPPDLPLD
UniProt O00767: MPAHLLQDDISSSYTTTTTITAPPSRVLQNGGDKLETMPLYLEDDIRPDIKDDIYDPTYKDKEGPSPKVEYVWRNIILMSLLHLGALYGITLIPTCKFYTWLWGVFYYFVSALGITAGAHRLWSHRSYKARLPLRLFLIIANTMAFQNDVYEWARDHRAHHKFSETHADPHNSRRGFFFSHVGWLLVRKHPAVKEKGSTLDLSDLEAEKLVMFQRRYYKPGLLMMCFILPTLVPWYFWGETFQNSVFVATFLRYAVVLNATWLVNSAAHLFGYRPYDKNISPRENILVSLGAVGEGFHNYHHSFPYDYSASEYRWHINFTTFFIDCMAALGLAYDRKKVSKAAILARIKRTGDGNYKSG
UniProt O00560: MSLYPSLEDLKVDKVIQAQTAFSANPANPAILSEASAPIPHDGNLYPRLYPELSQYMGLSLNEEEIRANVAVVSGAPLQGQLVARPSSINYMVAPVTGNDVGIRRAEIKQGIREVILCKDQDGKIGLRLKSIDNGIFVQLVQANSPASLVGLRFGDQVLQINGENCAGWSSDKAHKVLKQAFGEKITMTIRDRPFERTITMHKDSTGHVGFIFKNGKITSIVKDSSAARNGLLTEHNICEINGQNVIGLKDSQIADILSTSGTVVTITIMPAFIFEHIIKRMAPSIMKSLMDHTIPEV
UniProt Q5VUM1: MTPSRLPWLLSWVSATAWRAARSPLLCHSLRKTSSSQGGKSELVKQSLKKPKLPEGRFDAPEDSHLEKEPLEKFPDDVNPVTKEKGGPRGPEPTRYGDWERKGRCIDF
UniProt O43819: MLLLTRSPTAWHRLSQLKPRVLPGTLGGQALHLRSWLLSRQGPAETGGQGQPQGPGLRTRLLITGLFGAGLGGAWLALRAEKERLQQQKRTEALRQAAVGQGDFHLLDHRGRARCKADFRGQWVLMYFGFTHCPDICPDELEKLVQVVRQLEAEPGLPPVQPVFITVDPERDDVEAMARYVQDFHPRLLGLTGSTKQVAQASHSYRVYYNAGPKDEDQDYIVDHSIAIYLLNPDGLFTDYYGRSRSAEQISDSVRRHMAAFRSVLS
UniProt Q9NPB0: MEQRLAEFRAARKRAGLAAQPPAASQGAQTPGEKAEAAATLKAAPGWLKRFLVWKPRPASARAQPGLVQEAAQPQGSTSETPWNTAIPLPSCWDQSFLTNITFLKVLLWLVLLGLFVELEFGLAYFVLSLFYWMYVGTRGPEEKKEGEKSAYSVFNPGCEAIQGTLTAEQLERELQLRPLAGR
UniProt O95487: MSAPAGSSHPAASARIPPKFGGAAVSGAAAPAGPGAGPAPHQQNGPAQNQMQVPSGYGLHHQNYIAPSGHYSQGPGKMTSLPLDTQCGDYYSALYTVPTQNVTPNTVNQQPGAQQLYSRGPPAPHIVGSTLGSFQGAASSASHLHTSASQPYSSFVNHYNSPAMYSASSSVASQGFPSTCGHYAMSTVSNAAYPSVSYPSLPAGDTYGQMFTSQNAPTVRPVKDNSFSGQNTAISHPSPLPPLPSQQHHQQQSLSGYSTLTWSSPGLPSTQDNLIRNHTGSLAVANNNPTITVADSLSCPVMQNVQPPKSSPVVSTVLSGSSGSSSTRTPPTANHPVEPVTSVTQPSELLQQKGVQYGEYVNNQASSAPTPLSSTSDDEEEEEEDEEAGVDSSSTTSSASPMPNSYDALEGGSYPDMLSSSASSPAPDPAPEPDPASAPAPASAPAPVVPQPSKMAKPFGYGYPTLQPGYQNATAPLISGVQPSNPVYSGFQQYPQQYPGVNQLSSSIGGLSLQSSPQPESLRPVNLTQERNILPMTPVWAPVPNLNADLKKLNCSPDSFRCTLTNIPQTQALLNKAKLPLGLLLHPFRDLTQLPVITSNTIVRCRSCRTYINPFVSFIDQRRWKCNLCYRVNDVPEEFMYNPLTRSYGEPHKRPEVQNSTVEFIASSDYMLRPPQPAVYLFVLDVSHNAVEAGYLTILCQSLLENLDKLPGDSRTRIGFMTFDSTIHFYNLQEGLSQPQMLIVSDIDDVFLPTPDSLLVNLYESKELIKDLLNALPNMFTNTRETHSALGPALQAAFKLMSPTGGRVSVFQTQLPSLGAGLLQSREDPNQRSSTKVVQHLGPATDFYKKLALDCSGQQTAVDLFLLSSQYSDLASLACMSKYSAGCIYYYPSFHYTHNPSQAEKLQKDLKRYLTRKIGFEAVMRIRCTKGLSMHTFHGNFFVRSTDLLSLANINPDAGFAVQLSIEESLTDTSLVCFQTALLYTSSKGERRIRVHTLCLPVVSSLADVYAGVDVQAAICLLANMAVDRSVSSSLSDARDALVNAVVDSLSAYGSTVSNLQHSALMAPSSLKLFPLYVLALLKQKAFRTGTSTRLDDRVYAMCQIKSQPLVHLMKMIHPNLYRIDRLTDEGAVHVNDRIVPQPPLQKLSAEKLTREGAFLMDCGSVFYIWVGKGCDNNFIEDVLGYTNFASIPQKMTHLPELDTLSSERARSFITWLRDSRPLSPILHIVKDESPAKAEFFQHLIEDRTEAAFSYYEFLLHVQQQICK
UniProt Q5PRF9: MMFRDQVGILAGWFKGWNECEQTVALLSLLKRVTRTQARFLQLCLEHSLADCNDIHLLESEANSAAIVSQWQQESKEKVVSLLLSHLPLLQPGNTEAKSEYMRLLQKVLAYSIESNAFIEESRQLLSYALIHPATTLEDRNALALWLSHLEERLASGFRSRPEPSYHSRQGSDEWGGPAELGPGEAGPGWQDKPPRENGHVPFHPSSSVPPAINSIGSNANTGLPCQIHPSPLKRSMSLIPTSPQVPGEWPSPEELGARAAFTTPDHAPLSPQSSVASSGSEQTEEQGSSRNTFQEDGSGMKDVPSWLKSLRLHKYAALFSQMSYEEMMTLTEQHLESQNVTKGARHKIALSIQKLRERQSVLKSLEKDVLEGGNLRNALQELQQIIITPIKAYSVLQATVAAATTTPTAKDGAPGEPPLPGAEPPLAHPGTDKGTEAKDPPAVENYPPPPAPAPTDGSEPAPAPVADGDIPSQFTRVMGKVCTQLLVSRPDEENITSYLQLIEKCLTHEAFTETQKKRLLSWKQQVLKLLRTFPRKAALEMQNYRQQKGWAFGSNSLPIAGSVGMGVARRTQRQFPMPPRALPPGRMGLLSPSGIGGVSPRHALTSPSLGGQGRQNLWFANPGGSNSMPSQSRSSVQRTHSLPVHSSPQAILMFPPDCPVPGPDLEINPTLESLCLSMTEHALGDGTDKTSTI

Legend:
Test in all cases: log2 fold change, soluble protein after heating vs DMSO (PISA); higher = thermal stabilisation; K562 cells, 10 uM, 30 min; active = over 0.2 and 3.5 SD of the protein, either way, in both replicates (recomputed)
[1] = compound: CC1=C(C=C(C=C1)NC(=O)C2=CC(=CC=C2)C(C)(C)C#N)NC3=CC4=C(C=C3)N=CN(C4=O)C
Outline: (§1)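 K562 cells at 2×10^6 cells/mL were given 10 μM compound for 30 min. Aliquots then went through 3 min of heating across 48°C-58°C, were pooled, and were extracted in PBS with 0.5% NP-40 at 4°C, and the supernatant after 21,000xg for 90 min was quantified by TMTpro 16plex LC-MS/MS with channel sums equalised. Thermal stability relative to control samples, from duplicates, is given as log2 fold change.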

[2] = compound: CC1=C(C=C(C=C1)NC(=O)C2=CC(=CC=C2)N(C)C)NC(=O)C3=CC=C(C=C3)O
Outline: as §1

[3] = compound: CC1=CC=C(C=C1)SC2=C3C=C(SC3=CN=C2)C(=O)N
Outline: as §1

[4] = compound: CCCCN(Cc1ccc(C(=O)NO)cc1)C(=O)Nc1ccccc1 [Nexturastat A]
Outline: as §1

[5] = compound: CCCS(=O)(=O)Nc1ccc(F)c(C(=O)c2c[nH]c3ncc(-c4ccc(Cl)cc4)cc23)c1F [vemurafenib]
Outline: as §1

[6] = compound: CCCS(=O)(=O)Nc1ccc(F)c(C(=O)c2c[nH]c3ncc(Cl)cc23)c1F
Outline: as §1

[7] = compound: CCCc1cc(C)[nH]c(=O)c1CNC(=O)c1cc(-c2ccnc(N3CCN(C)CC3)c2)cc2c1cnn2C(C)C
Outline: as §1

[8] = compound: CCN(CC)Cc1ccc2cc(COC(=O)Nc3ccc(C(=O)NO)cc3)ccc2c1 [givinostat]
Outline: as §1

[9] = compound: CCN(CCCOc1ccc2c(Nc3cc(CC(=O)Nc4cccc(F)c4)[nH]n3)ncnc2c1)CCOP(=O)(O)O [barasertib]
Outline: as §1

[10] = compound: CC[C@@H]1C(=O)N(C)c2cnc(Nc3ccc(C(=O)NC4CCN(C)CC4)cc3OC)nc2N1C1CCCC1
Outline: as §1

[11] = compound: CC[C@@H]1C(=O)N(C)c2cnc(Nc3ccc(C(=O)N[C@H]4CC[C@H](N5CCN(CC6CC6)CC5)CC4)cc3OC)nc2N1C(C)C [volasertib]
Outline: as §1

[12] = compound: CC[C@H](C)N1C=C(C2=C(C=C(C=C21)C3=CN=C(C=C3)N4CCNCC4)C(=O)NCC5=C(C=C(NC5=O)C)C)C
Outline: as §1

[13] = compound: CC[C@H](C)[C@@H](C(=O)N[C@@H]([C@@H](C)O)C(=O)N[C@@H](CC(C)C)C(=O)[C@]1(CO1)C)NC(=O)[C@H]([C@@H](C)CC)N(C)C(=O)C [epoxomicin]
Outline: as §1

[14] = compound: CCn1c(C(=O)N(C2CC2)C2CC2)cc2c3c(ncn3C)c(Nc3cc(C)n(C)n3)nc21
Outline: as §1

[15] = compound: CCn1cc(-c2ccnc3[nH]c(-c4cccc(CN(C)C)c4)cc23)c(-c2ccc(NC(=O)N(C)C)cc2)n1
Outline: as §1

[16] = compound: CN(C)CC(=O)Nc1ccc2[nH]c(=O)c3ccccc3c2c1
Outline: as §1

[17] = compound: CN(CCOC1=CC=C(C=C1)C[C@H]2C(=O)NC(=O)S2)C3=CC=CC=N3 (racemic) [rosiglitazone]
Outline: as §1

[18] = compound: CN1C2=C(C3=C1C(=O)N(N=C3)CC4=CC(=CC=C4)N)SC(=C2)S(=O)C
Outline: as §1

[19] = compound: CN1CCC(CNc2ccc3ncc(-c4cccc(OC(F)(F)F)c4)n3n2)CC1
Outline: as §1

[20] = compound: CC1=NC(=CC=C1)C2=C(N=C(N2)C(C)(C)C)C3=CC4=NC=CN=C4C=C3
Outline: as §1

Row | Target | log2 fold change [1] | log2 fold change [2] | log2 fold change [3] | log2 fold change [4] | log2 fold change [5] | log2 fold change [6] | log2 fold change [7] | log2 fold change [8] | log2 fold change [9] | log2 fold change [10] | log2 fold change [11] | log2 fold change [12] | log2 fold change [13] | log2 fold change [14] | log2 fold change [15] | log2 fold change [16] | log2 fold change [17] | log2 fold change [18] | log2 fold change [19] | log2 fold change [20]
1 | SC5D (UniProt O75845) | inactive: -0.04 | inactive: -0.014 | inactive: 0.036 | inactive: 0.043 | inactive: 0.007 | inactive: -0.053 | inactive: 0 | inactive: -0.04 | inactive: -0.003 | inactive: 0.111 | inactive: 0.098 | inactive: -0.034 | inactive: 0.026 | inactive: 0.048 | inactive: 0.019 | inactive: -0.032 | inactive: -0.022 | inactive: 0.019 | inactive: -0.058 | 
2 | RUFY3 isoform 3 (UniProt Q7L099) | inactive: -0.085 | inactive: -0.068 | inactive: 0.016 |  | inactive: -0.032 | inactive: -0.011 | inactive: -0.093 | inactive: 0.021 |  | inactive: -0.135 | inactive: -0.149 | inactive: -0.071 |  |  | inactive: 0.079 | inactive: 0.011 |  | inactive: -0.015 | inactive: -0.048 | inactive: 0.038
3 | SCAMP2 (UniProt O15127) | inactive: -0.032 | inactive: -0.032 | inactive: 0.046 | inactive: -0.061 | inactive: 0.081 | inactive: 0.043 | inactive: 0.013 | inactive: -0.085 | inactive: -0.029 | inactive: -0.009 | inactive: 0.052 | inactive: -0.01 | inactive: 0.001 |  | inactive: 0.043 | inactive: 0.061 |  | inactive: -0.006 | inactive: -0.1 | 
4 | SDCCAG8 (UniProt Q86SQ7) | inactive: 0.189 |  | inactive: -0.039 |  | inactive: 0.243 | inactive: -0.02 |  | inactive: 0.099 |  | inactive: -0.034 | inactive: -0.023 |  |  | inactive: -0.111 | inactive: -0.247 | inactive: 0.095 |  | inactive: 0.07 | inactive: 0.086 | inactive: -0.052
5 | SDHC (UniProt Q99643) | inactive: 0.01 | inactive: 0.023 | inactive: -0.041 | inactive: -0.217 | inactive: 0.128 | inactive: 0.038 | inactive: -0.122 | inactive: -0.108 | inactive: -0.04 | inactive: 0.042 | inactive: 0.036 | inactive: -0.1 | inactive: 0.205 |  | inactive: 0 | inactive: 0.264 |  | inactive: -0.068 | inactive: 0.023 | inactive: 0.023
6 | SCAMP2 (UniProt H3BUB6) | inactive: -0.349 | inactive: 0.043 | inactive: -0.166 | inactive: 0.12 | inactive: -0.266 | inactive: -0.335 | inactive: -0.232 | inactive: -0.024 | inactive: 0.034 | inactive: -0.015 | inactive: -0.006 | inactive: -0.092 | inactive: -0.157 |  |  | inactive: -0.201 |  | inactive: 0.064 |  | inactive: -0.1
7 | S100A1 (UniProt P23297) | inactive: 0.103 | inactive: -0.064 |  | inactive: -0.066 |  |  |  | inactive: -0.204 | inactive: 0.077 |  |  | inactive: -0.085 | inactive: 0.104 | inactive: 0.145 |  |  | inactive: 0.061 |  |  | inactive: 0.187
8 | SDHD (UniProt O14521) | inactive: 0.022 | inactive: 0.019 | inactive: 0.004 | inactive: -0.015 | inactive: 0.047 | inactive: 0.03 | inactive: -0.082 | inactive: 0.099 | inactive: -0.013 | inactive: 0.025 | inactive: 0.001 | inactive: -0.113 | inactive: 0.235 | inactive: 0.029 | inactive: -0.136 | inactive: 0.207 | inactive: -0.083 | inactive: -0.081 | inactive: 0.121 | 
9 | SCAF4 (UniProt O95104) | inactive: 0.059 |  | inactive: 0.004 | inactive: -0.035 | inactive: 0.013 | inactive: 0.014 | inactive: 0.073 | inactive: 0.116 | inactive: 0.028 | inactive: -0.261 | inactive: -0.198 | inactive: 0.001 | inactive: 0.105 | inactive: -0.01 | inactive: 0.042 | inactive: 0.015 | inactive: 0.014 | inactive: -0.127 | inactive: -0.149 | inactive: -0.047
10 | SCNM1 (UniProt Q9BWG6) | inactive: -0.102 | inactive: 0.141 | inactive: 0.029 | inactive: -0.178 |  | inactive: 0.04 | inactive: 0.039 | inactive: -0.004 | inactive: -0.14 | inactive: 0.223 | inactive: 0.141 | inactive: 0.045 | inactive: 0 | inactive: 0.016 | inactive: 0.009 |  | inactive: -0.013 | inactive: 0.003 | inactive: 0.066 | inactive: -0.032
11 | SCD (UniProt O00767) | inactive: -0.076 | inactive: 0.037 | inactive: 0.038 | inactive: -0.121 | inactive: 0.022 | inactive: -0.053 | inactive: -0.021 | active: -0.457 | inactive: 0.003 | inactive: 0 | inactive: 0.009 | inactive: -0.063 | inactive: 0.109 |  | inactive: 0.036 | inactive: 0.008 |  | inactive: 0.025 | inactive: 0.095 | inactive: 0.078
12 | S100A6 (UniProt P06703) | inactive: 0.075 | inactive: -0.146 | inactive: 0.046 | inactive: -0.242 |  | inactive: -0.071 | inactive: -0.021 | inactive: -0.026 | inactive: 0.018 | inactive: -0.083 | inactive: 0.178 | inactive: 0.042 | inactive: 0.029 | inactive: 0.084 | inactive: -0.097 |  | inactive: -0.02 | inactive: 0.01 | inactive: 0.131 | inactive: 0.013
13 | SDCBP isoform 2 (UniProt O00560) | inactive: 0.06 | inactive: -0.058 | inactive: 0.004 | inactive: 0.149 |  | inactive: 0.076 | inactive: -0.048 | inactive: -0.008 | inactive: 0.046 | inactive: -0.015 | inactive: -0.221 | inactive: -0.021 | inactive: 0.056 |  | inactive: -0.234 |  |  | inactive: -0.196 | inactive: -0.208 | 
14 | SDHAF4 (UniProt Q5VUM1) | inactive: -0.066 |  | inactive: 0.053 | inactive: -0.039 |  | inactive: -0.065 | inactive: -0.035 | active: 0.368 | inactive: -0.018 | inactive: 0.013 | inactive: 0.075 | inactive: -0.045 | inactive: -0.066 |  |  |  |  | inactive: -0.014 |  | inactive: 0.022
15 | SCO2 (UniProt O43819) | active: -0.487 | inactive: -0.079 | inactive: 0.029 | inactive: 0.269 | inactive: 0.05 | inactive: 0.029 | inactive: 0.059 | inactive: 0.03 | inactive: 0.153 | inactive: -0.109 | inactive: -0.346 |  | inactive: -0.055 |  | inactive: -0.051 | inactive: 0.039 |  | inactive: -0.014 | inactive: -0.187 | inactive: -0.003
16 | SAYSD1 (UniProt Q9NPB0) | inactive: 0.154 |  | inactive: 0.052 | inactive: 0.127 |  | inactive: -0.099 | inactive: -0.199 | inactive: -0.009 | inactive: 0.048 | inactive: 0.027 | inactive: -0.047 |  | inactive: 0.056 | inactive: 0.105 |  |  | inactive: 0.089 |  |  | 
17 | SEC24B isoform 3 (UniProt O95487) | inactive: -0.063 | inactive: -0.013 | inactive: 0.015 | inactive: -0.059 | inactive: 0.054 | inactive: 0.018 | inactive: -0.009 |  | inactive: 0.046 | inactive: -0.15 | inactive: -0.179 |  | inactive: 0.089 |  | inactive: 0.045 | inactive: 0.057 | inactive: -0.046 | inactive: 0.047 | inactive: -0.01 | inactive: 0.027
18 | SAE1 (UniProt M0R286) | inactive: -0.254 | inactive: 0.069 | inactive: -0.148 | inactive: -0.218 | inactive: -0.04 | inactive: -0.092 | inactive: -0.395 | inactive: 0.042 | inactive: 0.101 |  | inactive: -0.028 |  | inactive: -0.225 | inactive: 0.11 |  | inactive: 0.082 | inactive: 0.078 |  |  | inactive: 0.06
19 | SASS6 (UniProt Q6UVJ0) | inactive: -0.087 | inactive: 0.015 | inactive: -0.019 | inactive: 0.078 | inactive: 0.024 | inactive: 0.069 | inactive: 0.152 | inactive: 0.023 | inactive: 0.183 |  | inactive: -0.162 | inactive: 0.252 | inactive: -0.001 | inactive: -0.194 | inactive: -0.027 | inactive: -0.143 | inactive: 0.193 | inactive: 0.128 | inactive: -0.021 | inactive: -0.073
20 | SAMD4B (UniProt Q5PRF9) | active: -0.501 | inactive: -0.02 | inactive: 0 | inactive: 0.202 |  | inactive: -0.132 |  | inactive: 0.201 | inactive: 0.157 |  | inactive: 0.078 | inactive: -0.047 | inactive: 0.02 |  | inactive: 0.023 |  |  | inactive: 0.089 | inactive: -0.308 | inactive: -0.054

Rewritten in markdown: part of the list above.

| Row | Target | log2 fold change [1] | log2 fold change [2] | log2 fold change [3] | log2 fold change [4] | log2 fold change [5] | log2 fold change [6] | log2 fold change [7] | log2 fold change [8] | log2 fold change [9] | log2 fold change [10] | log2 fold change [11] | log2 fold change [12] | log2 fold change [13] | log2 fold change [14] | log2 fold change [15] | log2 fold change [16] | log2 fold change [17] | log2 fold change [18] | log2 fold change [19] | log2 fold change [20] |
| --- | --- | --- | --- | --- | --- | --- | --- | --- | --- | --- | --- | --- | --- | --- | --- | --- | --- | --- | --- | --- | --- |
| 8 | SDHD (UniProt O14521) | inactive: 0.022 | inactive: 0.019 | inactive: 0.004 | inactive: -0.015 | inactive: 0.047 | inactive: 0.03 | inactive: -0.082 | inactive: 0.099 | inactive: -0.013 | inactive: 0.025 | inactive: 0.001 | inactive: -0.113 | inactive: 0.235 | inactive: 0.029 | inactive: -0.136 | inactive: 0.207 | inactive: -0.083 | inactive: -0.081 | inactive: 0.121 |  |
| 9 | SCAF4 (UniProt O95104) | inactive: 0.059 |  | inactive: 0.004 | inactive: -0.035 | inactive: 0.013 | inactive: 0.014 | inactive: 0.073 | inactive: 0.116 | inactive: 0.028 | inactive: -0.261 | inactive: -0.198 | inactive: 0.001 | inactive: 0.105 | inactive: -0.01 | inactive: 0.042 | inactive: 0.015 | inactive: 0.014 | inactive: -0.127 | inactive: -0.149 | inactive: -0.047 |
